{"source": "PubChem BioAssay AID602196 (INSERM, 2012)", "aim": "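Modifiers of cisplatin sensitivity in A549 cells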", "system": "human A549 lung cancer cells", "knock-down reagent": "siRNA pair against human genes", "timing": "48 h transfection before cisplatin; time from cisplatin to read-out not stated", "conditions": "cisplatin at a dose killing half of control-siRNA cells; exact dose and duration not given", "detection": "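Cisplatin cell death as a shift from the 50% death seen with control siRNA; siRNAs toxic or growth-blocking alone scored 0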", "direction": "two-siRNA summed score (-2 to +2): higher = both siRNAs protect from cisplatin killing; -2 means both sensitise", "rule for the call": "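Each siRNA scores 0 if harmful alone by LDH or WST-1, otherwise +1 if it reduces and -1 if it increases cisplatin killing; a gene is active when both siRNAs agree (sum +2 or -2)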", "meaning of the calls": "active = both siRNAs shift cisplatin killing the same way; inactive = no consistent shift, or siRNA harmful alone", "note": "Shown is an unselected part of about 23,000 reagents tested. 455 of them (2%) were called active. 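Active includes both protection and sensitisation; some change values fall well beyond the stated -50 to +50 range.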 Entries without a mark were called inactive. Further read-outs or replicates are left out here. Not given: the amount of reagent."}
{"gene": "RSKR (GeneID 124923)", "two-siRNA summed score (-2 to +2)": 0}
{"gene": "C11orf65 (GeneID 160140)", "two-siRNA summed score (-2 to +2)": 0}
{"gene": "KCP (GeneID 375616)", "two-siRNA summed score (-2 to +2)": 0}
{"gene": "G6PC2 (GeneID 57818)", "two-siRNA summed score (-2 to +2)": 0}
{"gene": "RPL23AP96 (GeneID 392181)", "two-siRNA summed score (-2 to +2)": 0}
{"gene": "CHRDL1 (GeneID 91851)", "two-siRNA summed score (-2 to +2)": 1}
{"gene": "MXRA7 (GeneID 439921)", "two-siRNA summed score (-2 to +2)": 0}
{"gene": "GAS2L1 (GeneID 10634)", "two-siRNA summed score (-2 to +2)": 0}
{"gene": "ACTL8 (GeneID 81569)", "two-siRNA summed score (-2 to +2)": 0}
{"gene": "B3GNT2 (GeneID 10678)", "two-siRNA summed score (-2 to +2)": 0}
{"gene": "ZBBX (GeneID 79740)", "two-siRNA summed score (-2 to +2)": 0}
{"gene": "PDLIM1 (GeneID 9124)", "two-siRNA summed score (-2 to +2)": 0}
{"gene": "MAGI2 (GeneID 9863)", "two-siRNA summed score (-2 to +2)": -1}
{"gene": "OR9A2 (GeneID 135924)", "two-siRNA summed score (-2 to +2)": 0}
{"gene": "LINC00960 (GeneID 401074)", "two-siRNA summed score (-2 to +2)": 1}
{"gene": "LOC440118", "two-siRNA summed score (-2 to +2)": 1}
{"gene": "LOC442372", "two-siRNA summed score (-2 to +2)": 1}
{"gene": "CFAP54 (GeneID 144535)", "two-siRNA summed score (-2 to +2)": 1}
{"gene": "LOC440613", "two-siRNA summed score (-2 to +2)": 0}
{"gene": "INTS12 (GeneID 57117)", "two-siRNA summed score (-2 to +2)": 0}
{"gene": "PPHLN1 (GeneID 51535)", "two-siRNA summed score (-2 to +2)": 1}
{"gene": "SFN (GeneID 2810)", "two-siRNA summed score (-2 to +2)": -1}
{"gene": "LOC441819", "two-siRNA summed score (-2 to +2)": 0}
{"gene": "LOC440575", "two-siRNA summed score (-2 to +2)": 0}
{"gene": "FKBP2 (GeneID 2286)", "two-siRNA summed score (-2 to +2)": -1}
{"gene": "PTHLH (GeneID 5744)", "two-siRNA summed score (-2 to +2)": 0}
{"gene": "SAMD11 (GeneID 148398)", "two-siRNA summed score (-2 to +2)": 0}
{"gene": "LINC01587 (GeneID 10141)", "two-siRNA summed score (-2 to +2)": 0}
{"gene": "FLJ36760", "two-siRNA summed score (-2 to +2)": 0}
{"gene": "MLKL (GeneID 197259)", "two-siRNA summed score (-2 to +2)": 0}
{"gene": "MKS1 (GeneID 54903)", "two-siRNA summed score (-2 to +2)": 0}

2 entries already listed, ordered by “two-siRNA summed score (-2 to +2)”, highest first.
{"gene": "FLJ36760", "two-siRNA summed score (-2 to +2)": 0}
{"gene": "MLKL (GeneID 197259)", "two-siRNA summed score (-2 to +2)": 0}
